Values quoted from earlier work in patent US20260183325A1, “SUSTAINED OR IMMEDIATE RELEASE ENERGY, MENTAL FOCUS, AND PHYSICAL RECOVERY NUTRITIONAL SUPPLEMENT BLEND, DIETARY SUPPLEMENT, FUNCTIONAL FOOD AND FUNCTIONAL BEVERAGE” (Matchstick Brands, LLC, priority 2023, published 2026).
For at least one compound, name, drawing or mass did not settle the structure.

Conditions: 349 elderly patients with mild cognitive impairment, after 9 months, compared to the untreated group

C[N+](C)(C)CCOP(=O)(O)OP(=O)([O-])OC[C@H]1O[C@@H](n2ccc(N)nc2=O)[C@H](O)[C@@H]1O [citicoline, cytidine-5′-diphosphocholine]
mini mental state examination (MMSE) scores: improvement
